The data set concerns the target T1, GST-REF6C (C2H2 ZnF domain) (Arabidopsis thaliana) (UniProt Q9STM3).
T1 sequence (looked up): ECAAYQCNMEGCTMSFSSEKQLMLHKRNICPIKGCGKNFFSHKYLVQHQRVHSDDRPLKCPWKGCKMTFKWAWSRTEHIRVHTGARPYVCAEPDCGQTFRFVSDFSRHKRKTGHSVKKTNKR
As to the kind of experiment: EMSA. The following applies: Light Shift EMSA kit binding buffer (composition, salt, pH not stated), poly(dI-dC), 4 ug protein in 20 ul, room temperature 30 min; recombinant protein; residues 1239-1360; protein details: N-terminal GST; label: biotin.

Construct, isoform or probe ends are uncertain for at least one entry. A negative result means that nothing was seen under these conditions. At least one verdict rests on a figure or table, not on a statement of the authors. Where a protein sequence is shown, tags need not be part of it.

Regarding “CAAAAAGGGTAAAAAAAATTAGTTATTA / TAATAACTAAATTTTTTTCCCTTTTTG [NYE2 mutant probe]”, the binding result is “no binding”. In the case of “AAAGGAGTCTAAAAAAAATTAGTGGCGT / ACGCCACTAAATTTTTTTTTACTCCTTT [NYE1 mutant probe]”, the binding result was “no binding”.

(Values after publication PMC6457497, “The H3K27me3 demethylase REF6 promotes leaf senescence through directly activating major senescence regulatory and functional genes in Arabidopsis”.)
